## Results of single-concentration screens

Protein sequences, listed by entry. Tags and fused reporters are not part of them.
UniProt P9WPC5, whole entry: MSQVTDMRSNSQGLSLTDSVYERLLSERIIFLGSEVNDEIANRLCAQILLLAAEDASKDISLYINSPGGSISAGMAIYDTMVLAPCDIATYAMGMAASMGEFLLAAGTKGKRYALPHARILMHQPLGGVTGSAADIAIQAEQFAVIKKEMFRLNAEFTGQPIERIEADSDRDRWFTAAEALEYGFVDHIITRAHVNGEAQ
UniProt P9WPC3, whole entry partner: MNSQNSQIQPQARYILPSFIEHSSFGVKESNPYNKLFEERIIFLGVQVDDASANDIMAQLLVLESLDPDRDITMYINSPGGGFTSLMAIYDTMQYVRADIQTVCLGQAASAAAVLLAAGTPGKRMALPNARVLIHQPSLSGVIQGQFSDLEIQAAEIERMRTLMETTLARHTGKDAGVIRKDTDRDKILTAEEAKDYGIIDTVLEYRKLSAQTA

Toxoplasma: 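Assay of Toxoplasma gondii numbers, read through their beta-galactosidase reporter with a colour substrate. Tested at 10 µM. The record gives no direction; the compounds picked for IC50 retests had high values, so higher reads as fewer parasites. Of about 67,000 compounds tested this way, about 260 (0.38%) reached 50% or more in at least one test.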
ClpP1P2: 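ClpP1P2, Mycobacterium tuberculosis (UniProt P9WPC5 and UniProt P9WPC3). Protease assay of ClpP1P2, read by the AMC dye that it sets free. Tested at 50 µM. Higher reads as stronger inhibition, judged from the few compounds that gave an IC50. Most other retested compounds had strongly negative values. Size under these conditions: about 69,000 compounds, about 10 of them at 50% or above in at least one test.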
Leishmania in macrophages: 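Cell assay of Leishmania donovani living inside macrophages; the read-out is not stated. Compounds at 30 µM. Higher reads as stronger inhibition (inferred: compounds with an IC50 in retests scored well above the rest). Size under these conditions: about 69,000 compounds, about 1,000 of them at 50% or above in at least one test.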
T. brucei: 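Whole-parasite assay of Trypanosoma brucei over 72 hours; the read-out is not stated. Concentration: 30 µM. The record gives no direction; compounds that gave an IC50 in retests scored well above the rest, so higher reads as stronger inhibition. Values scatter widely below zero; nearly all retest evidence comes from the higher of the two concentrations used. About 64,000 compounds were tested under these conditions; 1.5% (about 940) showed 50% or more at least once.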

Each number is a percent effect as filed.
The controls that fix the scale are not given in the record; negative values are as filed.
This is an unselected part of the compounds tested.
Two or more numbers in one place are separate tests of the same structure; such repeats can differ widely.
A dash means the value is not listed here; it may have been measured.

| Compound | Toxoplasma | ClpP1P2 | Leishmania in macrophages | T. brucei |
|---|---|---|---|---|
| `O=C(O)C(F)(F)F.O=C(c1ccco1)N1CCC2(CCCN(c3ncccn3)C2)C1` (stereo not shown) | -5.195 | - | 31.81 | -37.47 |
| `[H][C@]12CCCCN1CCC[C@H]2CN(C)Cc1nc2ccsc2c(=O)[nH]1` | -7.649 | - | 7.143 | -20.8 |
| `COc1ccc(-c2noc(CN3CCOCC3C)n2)cc1OC` (stereo not shown) | 8.903 | 4.993 | 30.78 | -1.867 |
| `O=C(c1cc2cc(F)ccc2[nH]1)N1CCCCC1Cn1cccn1` (stereo not shown) | -4.153 | -20.83 | 19.71 | 48.32 |
| `COc1cc(CN(C)C(=O)Nc2cc(C)on2)ccc1SC` | -2.935 | 3.19 | 7.735 | -19.92 |
| `Cc1cnn(C2CN(Cc3ccc4c(c3)OCCO4)C2)c1` | -5.727 | 4.854 | 14.61 | 9.978 |
| `CC(C)c1noc(Cn2ncc3ccccc3c2=O)n1` | -0.2157 | 5.9 | 12.68 | -63.14 |
| `CS(=O)(=O)c1ccc(CNC[C@H]2COCc3nc4cccnc4n32)cc1` | 6.65 | -8.277 | 4.798 | 14.97 |
| `CCCc1n[nH]c(C2CN(CCc3cccs3)CCO2)n1` (stereo not shown) | 7.045 | -15.22 | -4.685 | - |
| `COc1ccc(OC)c(CN(C)c2nc3c(cnn3C)c(=O)[nH]2)c1` | 20.59 | 3.566 | 15.82 | -16.66 |
| `COCC(c1cccc(C(F)(F)F)c1)N(C)C(=O)c1cc(C)n[nH]1` (stereo not shown) | 4.375 | 28.52 | -9.36 | -33.3 |
| `Cc1c(Cl)cccc1S(=O)(=O)NCC(O)c1cccn1C` (stereo not shown) | -0.2574 | -4.641 | 8.113 and 20.2 | 15.12 |
| `Cc1nc(CC(=O)N2CCCCC2c2ccn3ccnc3n2)cs1` (stereo not shown) | 4.933 | -11.39 | 1.775 | 18.44 |
| `O=C(c1ccc(-c2ccc(O)nc2)s1)N1CCCCC1` | 53 | -3.65 | 39.31 | -18.39 |
| `CN(CC1CCC1)C(=O)c1ccc(-c2nc(C3CC3)n[nH]2)cc1` | -0.6882 | -6.6 | -6.24 | -2.058 |
| `CCc1cc(N(C)Cc2ccno2)n2nc(C)c(C)c2n1` | -40.44 | -7.712 | 5.611 | 69.73 |
| `O=C1CN(Cc2cc(O)c3cccc(F)c3n2)CCN1C1CCCC1` | 2.398 | -3.017 | 7.514 | -1.895 |
| `Cc1cc(NC(=O)CN2CCn3c(nnc3-c3ccccc3)C2)no1` | 0.1158 | 3.664 | -14.19 | -6.817 |
| `Cc1cc(CN2CC[C@H]3[C@H]2CCN3C)oc1C` | - | -0.248 | - | - |
| `COCCn1ccc(NC(=O)Nc2ccncc2)n1` | 3.704 | -10.84 | 25.34 | 24.61 |
| `CC(C)(O)CN1CCN(C(=O)COCc2ccccc2Cl)CC1` | 9.1 | -28.82 | 7.327 | 1.71 |
| `CC1CCCN(CCCNC(=O)Cc2csc(-c3ccoc3)n2)C1` (stereo not shown) | -2.122 | -1.157 | 9.746 | -37.99 |
| `CCn1cc2c(n1)CN(S(=O)(=O)c1cn(C)cn1)CC2COC` (stereo not shown) | - | 1.506 | - | - |
| `[H][C@@]12CCN(CC3CC3)C[C@]1([H])OCCN(c1ccsc1)C2=O` | -6.934 | - | 19.45 | -35.67 |
| `Cc1ccccc1C(=O)N1CCCn2nnc(Cn3cccn3)c2C1` | -3.667 | 4.532 | -2.064 | -7.072 |
| `CCCNC(=O)C1CCCN(c2ccc3nncn3n2)C1` (stereo not shown) | 11.58 | 15.51 | 33.4 | -29.5 |
| `CCCS(=O)(=O)N1CCOC2(CCCN(c3ccc(C)nn3)C2)C1` (stereo not shown) | 2.873 | 0.606 | 22.25 | -11.37 |
| `CCOC(=O)N[C@H]1C[C@@H](C(=O)NCc2cccc(Cl)c2)N(C)C1` | 10.76 | -4.28 | -1.576 | -19.05 |
| `Cc1ccc(-c2noc([C@H](N)CC(C)C)n2)nn1` | -3.066 | 7.785 | 19.58 | -54.02 |
| `COc1ccc(CS(=O)(=O)CC(=O)NCc2ccccc2F)cc1F` | 4.173 | -0.5178 | 17.61 | -0.06015 |
| `c1cnc(Nc2cncc(C3CCCN(c4ncccn4)C3)n2)nc1` (stereo not shown) | 5.839 | -10.84 | -8.026 and -15.61 | -5.193 |
| `O=C(NCCNC(=O)C1CCN(c2ncccn2)CC1)c1ccoc1` | -2.973 | 5.28 | 13.87 | -65.88 |
| `CO[C@@H]1CN(c2ccccc2)S(=O)(=O)[C@@]12CCN(S(C)(=O)=O)C2` | -8.324 | -1.356 | -11.78 | -38.56 |
| `Cc1nn(C)c(N(C)C)c1CNCC(O)COc1ccccc1` (stereo not shown) | - | -1.267 | - | - |
| `COc1nc(C)ccc1CNc1cc(N2CCCC2CO)ncn1` (stereo not shown) | 4.824 | -13.88 | -24.04 | -5.433 |
| `COc1cccc(C(=O)N2CCOCC2CN(C)C)c1OC` (stereo not shown) | - | -7.081 | - | - |
| `O=C(O)C(F)(F)F.[H][C@@]12CCCO[C@]1([H])[C@@H](OCC1CCCC1)CN2c1nnc(C)s1` | 12.67 | - | 21.72 | -8.376 |
| `COc1ccc(NC(=O)C(C)n2cncn2)cn1` (stereo not shown) | -16.56 | -8.011 | 35.73 | -10.53 |
| `CC(C)C(O)CNC(=O)Nc1cccc(-c2nccs2)c1` (stereo not shown) | 6.351 | 6.554 | 6.985 | -5.817 |
| `CCn1cc(S(=O)(=O)N2CCCC3(CC=CNC3=O)C2)cn1` (stereo not shown) | - | -7.068 | 6.501 | - |
| `CCN(CC)CC(=O)NCc1cccnc1-n1cnc2ccccc21` | -5.622 | -0.3779 | 12.53 | -25 |
| `O=C(NC1CCCC1)c1ccc(COCC(F)(F)F)o1` | -36.39 | -0.9986 | 28.32 | -30.12 |
| `O=C([C@H]1C[C@H]2OCC[C@H]2N(CCc2ccccc2)C1)N1CCCO1` | - | -6.477 | - | - |
| `c1ccc(OCC2CC3(CCN(CC4CCOCC4)CC3)CO2)nc1` (stereo not shown) | -29.24 | 12.67 | -0.3733 | -22.75 |
| `Cc1ccc(S(=O)(=O)N2C[C@H](C3CC3)[C@@H](N)C2)cc1F` | - | -13.79 | 34.36 | -1.627 |
| `CC(C)(C)c1cc(NC(=O)CNC2CCc3ncnn3C2)on1` (stereo not shown) | -3.844 | 3.183 | -4.293 | 2.657 |

For reference, 3 entries once more:

| Compound | Toxoplasma | ClpP1P2 | Leishmania in macrophages | T. brucei |
|---|---|---|---|---|
| `Cc1cc(CN2CC[C@H]3[C@H]2CCN3C)oc1C` | - | -0.248 | - | - |
| `COc1cccc(C(=O)N2CCOCC2CN(C)C)c1OC` (stereo not shown) | - | -7.081 | - | - |
| `COc1nc(C)ccc1CNc1cc(N2CCCC2CO)ncn1` (stereo not shown) | 4.824 | -13.88 | -24.04 | -5.433 |

Data taken from ChEMBL document CHEMBL3988442, “University of Dundee, Small-Polar-MMV Screening Library” (2021).